The text below walks through data of publication PMC2627925.

By UniProt entry, the sequences of proteins in these tests, tags left out.
UniProt Q9UKB1: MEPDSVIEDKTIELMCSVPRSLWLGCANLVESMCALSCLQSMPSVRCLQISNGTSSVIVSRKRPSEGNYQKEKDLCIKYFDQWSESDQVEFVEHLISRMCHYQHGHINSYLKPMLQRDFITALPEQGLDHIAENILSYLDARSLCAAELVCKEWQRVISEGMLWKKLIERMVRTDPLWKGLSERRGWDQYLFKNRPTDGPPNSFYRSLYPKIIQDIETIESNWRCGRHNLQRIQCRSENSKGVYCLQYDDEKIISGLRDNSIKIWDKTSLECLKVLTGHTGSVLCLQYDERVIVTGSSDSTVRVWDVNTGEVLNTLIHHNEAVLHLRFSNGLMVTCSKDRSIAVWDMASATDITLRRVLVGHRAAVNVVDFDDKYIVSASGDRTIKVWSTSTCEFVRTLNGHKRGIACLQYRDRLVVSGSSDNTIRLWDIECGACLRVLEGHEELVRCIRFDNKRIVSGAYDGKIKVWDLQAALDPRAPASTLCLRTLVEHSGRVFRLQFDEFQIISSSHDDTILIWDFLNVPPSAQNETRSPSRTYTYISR
UniProt Q84940: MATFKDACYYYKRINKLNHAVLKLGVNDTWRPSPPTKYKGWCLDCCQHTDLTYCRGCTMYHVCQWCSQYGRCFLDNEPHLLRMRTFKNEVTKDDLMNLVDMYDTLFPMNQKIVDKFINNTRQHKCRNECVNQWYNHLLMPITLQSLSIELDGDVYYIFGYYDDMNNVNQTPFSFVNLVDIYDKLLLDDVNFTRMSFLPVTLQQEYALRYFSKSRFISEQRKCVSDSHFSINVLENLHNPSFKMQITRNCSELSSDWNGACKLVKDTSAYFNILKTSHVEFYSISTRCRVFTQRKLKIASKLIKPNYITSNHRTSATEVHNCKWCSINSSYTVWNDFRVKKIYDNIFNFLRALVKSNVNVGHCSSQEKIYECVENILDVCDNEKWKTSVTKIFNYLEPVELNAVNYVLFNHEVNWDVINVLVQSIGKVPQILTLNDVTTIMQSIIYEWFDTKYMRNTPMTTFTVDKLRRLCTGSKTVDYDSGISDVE

No constants are given. Whether binding was seen depends on the method and setting. In cells and extracts the contact can be indirect. Some results given as binding are weak or reduced against the parent protein; the word gives no strength.

Assay [1] deals with Flag-tagged β-transducin repeat containing protein (β-TrCP), from pCMV-Flag-β-TrCP2 (UniProt Q9UKB1). Kind of assay: co-IP; 293 cells co-transfected with pFlag-β-TrCP and pN-NSP1 or pO-NSP1; 10 µM MG132 added 40 h post-transfection for eight hours; lysate precipitated with anti-FLAG M2 Agarose Affinity Resin; blots with anti-Flag and anti-myc.
Assay [2] shares this target. Kind of assay: co-IP; HEK293 cells transfected with pCMV-Flag-β-TrCP2, infected with three pfu/cell of OSU, harvested eight hpi in 50 mM Tris-HCl pH 7.5, 150 mM NaCl, 1% Triton X-100, 1 mM EDTA; anti-FLAG M2-Agarose; blots with anti-Flag and anti-OSU NSP1.

As for “OSU NSP1 (rotavirus nonstructural protein NSP1 of porcine strain OSU), myc-tagged, from pO-NSP1 (from UniProt Q84940 1-486)”, the binding result in assay [1] is recorded as “binds”.
“NSP1 made in OSU infected cells (porcine rotavirus strain OSU) (from UniProt Q84940 1-486)”: the binding entry in assay [2] is given as “binds”.
